Publication PMC11476177
Results are given in words; binding and its absence hold for the method and conditions named. Binding seen in cells or lysates may run through a third protein. Some binding calls cover weakened binding; strength is not graded here. Tags and fused reporters may be left off the sequences shown.

Amino acid sequences for entries named in this document (tags omitted). Residues count along the entry.
UniProt O94916, residues 1-1127: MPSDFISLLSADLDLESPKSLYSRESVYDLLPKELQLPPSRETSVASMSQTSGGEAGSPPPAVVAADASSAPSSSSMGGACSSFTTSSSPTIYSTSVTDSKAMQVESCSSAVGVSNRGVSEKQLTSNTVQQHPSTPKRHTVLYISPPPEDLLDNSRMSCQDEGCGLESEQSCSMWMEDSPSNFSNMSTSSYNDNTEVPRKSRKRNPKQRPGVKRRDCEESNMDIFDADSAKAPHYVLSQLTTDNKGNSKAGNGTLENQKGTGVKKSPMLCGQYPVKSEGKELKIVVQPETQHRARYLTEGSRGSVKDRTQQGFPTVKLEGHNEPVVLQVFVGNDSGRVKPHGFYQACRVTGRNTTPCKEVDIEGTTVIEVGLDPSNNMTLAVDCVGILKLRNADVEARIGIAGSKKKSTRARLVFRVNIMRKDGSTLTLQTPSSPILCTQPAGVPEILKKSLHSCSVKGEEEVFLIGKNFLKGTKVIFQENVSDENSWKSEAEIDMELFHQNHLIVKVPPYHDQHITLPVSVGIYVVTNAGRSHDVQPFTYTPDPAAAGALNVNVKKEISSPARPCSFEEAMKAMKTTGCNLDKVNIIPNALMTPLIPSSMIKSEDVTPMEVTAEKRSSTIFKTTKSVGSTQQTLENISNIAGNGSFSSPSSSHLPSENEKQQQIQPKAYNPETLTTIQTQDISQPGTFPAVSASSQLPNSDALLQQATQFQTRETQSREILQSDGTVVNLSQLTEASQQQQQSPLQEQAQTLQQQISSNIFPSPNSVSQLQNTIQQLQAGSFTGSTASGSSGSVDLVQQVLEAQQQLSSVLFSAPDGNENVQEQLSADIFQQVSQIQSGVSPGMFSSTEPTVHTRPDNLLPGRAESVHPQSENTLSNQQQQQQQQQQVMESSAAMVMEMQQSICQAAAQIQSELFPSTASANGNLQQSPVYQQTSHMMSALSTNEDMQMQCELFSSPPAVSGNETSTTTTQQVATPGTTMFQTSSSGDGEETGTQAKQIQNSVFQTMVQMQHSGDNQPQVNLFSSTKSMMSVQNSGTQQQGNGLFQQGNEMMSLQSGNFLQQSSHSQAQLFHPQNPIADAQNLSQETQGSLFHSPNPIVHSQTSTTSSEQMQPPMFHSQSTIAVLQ
UniProt Q04206: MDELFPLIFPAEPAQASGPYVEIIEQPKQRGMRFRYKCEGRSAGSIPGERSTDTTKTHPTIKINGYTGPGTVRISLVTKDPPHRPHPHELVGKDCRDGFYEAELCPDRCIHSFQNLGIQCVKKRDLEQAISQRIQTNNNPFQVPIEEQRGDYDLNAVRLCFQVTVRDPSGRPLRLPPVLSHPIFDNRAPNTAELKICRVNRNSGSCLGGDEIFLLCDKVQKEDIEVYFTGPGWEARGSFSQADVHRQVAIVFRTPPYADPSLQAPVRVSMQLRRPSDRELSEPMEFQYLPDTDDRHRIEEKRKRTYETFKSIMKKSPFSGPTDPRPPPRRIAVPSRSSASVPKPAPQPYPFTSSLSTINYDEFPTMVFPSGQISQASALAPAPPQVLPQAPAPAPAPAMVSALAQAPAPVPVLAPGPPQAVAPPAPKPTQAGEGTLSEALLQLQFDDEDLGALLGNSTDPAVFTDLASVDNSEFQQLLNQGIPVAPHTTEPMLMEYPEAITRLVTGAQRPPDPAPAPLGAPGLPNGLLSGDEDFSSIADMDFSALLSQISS

Molecular target: Flag-TonEBP NT (N-terminal fragment of TonEBP generated by SARS-CoV-2 NSP5 cleavage, TonEBP 1-1127) (UniProt O94916)
Experiment: co-IP

YFP-p65 (from UniProt Q04206 1-551)
binding: binds

B1: GFP-IRF3 (protein, UniProt Q14653 1-427)
chain: MGTPKPRILPWLVSQLDLGQLEGVAWVNKSRTRFRIPWKHGLRQDAQQEDFGIFQAWAEATGAYVPGRDKPDLPTWKRNFRSALNRKEGLRLAEDRSKDPHDPHKIYEFVNSGVGDFSQPDTSPDTNGGGSTSDTQEDILDELLGNMVLAPLPDPGPPSLAVAPEPCPQPLRSPSLDNPTPFPNLGPSENPLKRLLVPGEEWEFEVTAFYRGRQVFQQTISCPEGLRLVGSEVGDRTLPGWPVTLPDPGMSLTDRGVMSYVRHVLSCLGGGLALWRAGQWLWAQRLGHCHTYWAVSEELLPNSGHGPDGEVPKDKEGGVFDLGPFIVDLITFTEGSGRSPRYALWFCVGESWPQDQPWTKRLVMVKVVPTCLRALVEMARVGGASSLENTVDLHISNSHPLSLTSDQYKAYLQDLVEGMDFQGPGES
binding: no binding
